# Laboratory results: PubChem BioAssay AID686943 (Drosophila RNAi Screening Center, 2013)
# Test: 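Fly genes whose loss alters ERK activation after insulin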 (primary screen)
# Cells: Drosophila S2R+ haemocyte-like cells expressing YFP-tagged ERK (Rolled)
# Reagent: long dsRNA against Drosophila genes
# Conditions: insulin stimulation versus unstimulated cells; dose and duration not given
# Detection: 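Per-plate z-scores of phospho-ERK immunostaining normalised to YFP-tagged ERK, measured with and without insulin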
# Scale: replicate 1, z-score of dpERK with insulin and replicate 2, z-score of dpERK with insulin: higher = more active ERK per ERK-YFP after insulin; replicate 1, z-score of dpERK under basal conditions: higher = more basal active ERK per ERK-YFP; replicate 1, z-score of ERK-YFP with insulin: higher = more YFP-tagged ERK signal
# In all, the deposit lists about 23,000 reagents; shown is a random part of those with a known target gene and a result. 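Extra replicates exist only for a retested subset of genes; insulin dose and duration not given; both raised and lowered dpERK matter.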 Names joined by + are all predicted targets of the reagent. Not given: the amount of reagent, the time to read-out.
target gene,amplicon,"replicate 1, z-score of dpERK with insulin","replicate 2, z-score of dpERK with insulin","replicate 1, z-score of dpERK under basal conditions","replicate 1, z-score of ERK-YFP with insulin"
meng (meng-po),DRSC02134,0.1,0.52,0.57,-0.12
mey (morpheyus),DRSC14468,-1.06,-0.42,0.08,0.52
GstD5 (Glutathione S transferase D5),DRSC16686,0.86,0.34,0.93,-0.36
TpnC25D (Troponin C at 25D),DRSC02965,-0.35,0.96,-0.56,-1.28
CG43658,DRSC19455,0.51,0.32,0.14,-0.2
CG43658,DRSC20111,0.6,1.1,-0.04,0.12
edin (elevated during infection),DRSC09488,0.56,0.44,0.36,-0.79
Osbp (Oxysterol binding protein),DRSC16779,-0.5,-0.71,0.67,0.64
Orc6 (Origin recognition complex subunit 6),DRSC07497,-0.1,-0.15,0.68,-0.51
Or45b (Odorant receptor 45b),DRSC07488,0.65,0.14,0.31,-0.19
CG4830,DRSC15657,-0.16,0.8,0.55,-0.26
Cad87A (Cadherin 87A),DRSC16161,1.15,0.45,0.02,-1.54
CG13557,DRSC04195,-0.31,-1.86,0.06,0.14
CG32262,DRSC08165,0.63,0.83,-0.29,0.49
Spt20,DRSC10280,-0.62,-1.74,-2.63,-4.12
DIP-kappa (Dpr-interacting protein kappa),DRSC01336,-3.26,-3.21,-2.41,0.34
DIP-kappa (Dpr-interacting protein kappa),DRSC01337,-0.4,-0.56,0.33,-0.07
CG8320 + ATPCL,DRSC07147,0.86,0.03,0.46,0.17
CG13744,DRSC06415,0.69,-0.18,0.05,0.59
Ugt37B1 (UDP-glycosyltransferase family 37 member B1),DRSC03225,0.52,-0.02,0.22,1.22
BomS6 (Bomanin Short 6),DRSC21676,-0.49,-0.87,0.72,1.67
CG43317,DRSC15000,0.19,0.32,1.45,0.34
form3 (formin 3),DRSC10195,-0.16,-0.12,-0.34,0.43
form3 (formin 3),DRSC10297,-0.12,-0.14,-0.2,-0.33
form3 (formin 3),DRSC11024,0.89,0.8,-0.24,-0.23
esc (extra sexcombs),DRSC03529,-0.35,0.16,-0.47,0.67
Ilp2 (Insulin-like peptide 2),DRSC10968,-0.53,-0.52,0.23,0
CG9083 + Tpc2,DRSC04625,0.48,0.1,0.16,0.17
Nep1 (Neprilysin 1),DRSC18388,-0.62,-0.91,0.11,0.42
Nep1 (Neprilysin 1),DRSC18389,-1.83,-1.14,-1.24,-1.8
cbc (crowded by cid),DRSC06957,0.62,1.48,1.27,0.55
CG15432,DRSC00447,3.02,1.11,-1.32,-0.19
CG5909,DRSC15914,0.45,0.04,-0.41,0.02
RpS18 (Ribosomal protein S18),DRSC07540,-2.36,0.07,-2.35,-3.1
CarT (Carcinine transporter),DRSC03196,0.19,-0.79,0.21,1.36
CG42455 + vnc,DRSC09867,1.97,1.26,-0.51,-1.31
Mapmodulin,DRSC06956,0.43,-0.53,1.34,-0.96
PolD3 (DNA polymerase delta subunit 3),DRSC01961,-0.41,-0.25,-0.05,0.18
djl (don juan like),DRSC12578,-0.1,-0.25,-0.81,0.17
mRpL38 (mitochondrial ribosomal protein L38),DRSC19734,-0.13,0.83,-0.68,1.38
CG14367,DRSC14829,0.31,0.48,-0.13,-0.43

Continued; the last 6 above are carried over.
target gene,amplicon,"replicate 1, z-score of dpERK with insulin","replicate 2, z-score of dpERK with insulin","replicate 1, z-score of dpERK under basal conditions","replicate 1, z-score of ERK-YFP with insulin"
CG42455 + vnc,DRSC09867,1.97,1.26,-0.51,-1.31
Mapmodulin,DRSC06956,0.43,-0.53,1.34,-0.96
PolD3 (DNA polymerase delta subunit 3),DRSC01961,-0.41,-0.25,-0.05,0.18
djl (don juan like),DRSC12578,-0.1,-0.25,-0.81,0.17
mRpL38 (mitochondrial ribosomal protein L38),DRSC19734,-0.13,0.83,-0.68,1.38
CG14367,DRSC14829,0.31,0.48,-0.13,-0.43
rst (roughest),DRSC17243,-0.48,-1.47,-1.72,0.32
rst (roughest),DRSC18828,-0.12,-0.26,0.62,0.26
CG14491,DRSC06462,0.4,0.34,0.84,0.72
CG13840,DRSC14690,-1.45,0.07,-1.03,0.42
Utx (Utx histone demethylase),DRSC02872,1.37,1.84,2.17,0.66
CG7120,DRSC08921,-0.5,0,-0.38,0.76
CG7120,DRSC10773,0.31,-0.66,0.82,0.56
rush (rush hour),DRSC18568,1.23,0.07,-0.75,1
eIF2Bgamma (eukaryotic translation initiation factor 2B subunit gamma),DRSC07100,-0.28,-0.54,0.04,-0.52
CG12470,DRSC18620,0.29,-0.13,-0.54,0.65
CG10237,DRSC02029,-0.23,-0.18,-1.48,0.46
Or98P (Odorant receptor 98a pseudogene),DRSC22948,-0.06,-0.26,-0.48,0.03
CG15369,DRSC18041,-0.03,0.39,0.1,0.26
Pde1c (Phosphodiesterase 1c),DRSC02421,-1.21,-0.26,0.27,-0.97
Pde1c (Phosphodiesterase 1c),DRSC02422,0.4,-0.05,0.82,0.18
Pde1c (Phosphodiesterase 1c),DRSC02423,-0.93,-0.72,-0.58,1.47
Pde1c (Phosphodiesterase 1c),DRSC02424,-0.24,0.15,-0.21,0.56
Pde1c (Phosphodiesterase 1c),DRSC02425,0.58,-0.08,0.14,1.07
Pde1c (Phosphodiesterase 1c),DRSC02426,-0.82,-1.13,-1.59,0
CG14669,DRSC12065,-0.74,-2.47,-3.95,-3.52
CG14669,DRSC12067,-0.97,0.09,0.42,0.26
CG14669,DRSC12068,1.04,0.66,-0.01,-0.62
CG14669,DRSC12255,1.55,1.87,0.54,-0.06
CG8306,DRSC07141,-0.01,-0.08,-0.91,0.28
CG5023,DRSC15697,0,0.62,1.55,0
CG34384,DRSC12642,0.43,-0.47,1.01,0.82
CG34384,DRSC12644,-0.25,2.09,0.87,-0.85
CG34384,DRSC14855,-1.11,0.27,-0.96,0.42
CG34384,DRSC15444,0.2,-0.23,-1.26,0.13
CG34384,DRSC16575,0.79,-0.14,-0.04,0.11
CG7407,DRSC11824,0.06,0.12,0,0.19
magu,DRSC06832,-0.04,0.42,0.26,0.45
